Experimental data as given in PubChem BioAssay AID328 (DTP/NCI, 2004).
The list is a part of this screen's results and no random one: it gathers tests that were run many times, whatever their T/C, doses with no T/C, and many T/C values between a quarter and a half above the control. Further doses and runs are listed elsewhere. T/C is the treated group as % of the vehicle group. Some doses have a count of surviving animals in place of a T/C: the source files T/C as zero there, which appears to mark a toxic dose or a test without result, not a measured value. Some survivor counts are full or nearly so, which does not show that the dose was tolerated: the source hardly ever lists a survival T/C far under the control, and the zero likely stands for such cases as well. Counts of survivors are from the toxicity check (mostly the fifth day) where no day follows; animals may have died later. Schedules are NCI's codes, read here as Q, the interval in days (D) or hours (H), X, the number of doses. Some doses were run more than once; the values are given in rising order. Some molecules as drawn cover several salts, stereoisomers or complexes of the source; a dose is that of the sample tested. Where survival is the endpoint, the PubChem record calls one and a half times the control and up active, and a quarter to a half above the control has no call in these data; cut-offs in other NCI protocols can differ. Some T/C values carry the count of animals alive at the toxicity check (mostly the fifth day); where none is given, no animal had died by that day.

Tested on: BDF1 mice, P388 leukemia ip, median survival T/C
Assay: NCI In Vivo Anticancer Drug Screen. Data for tumor model P388 Leukemia (intraperitoneal) in B6D2F1 (BDF1) mice
Conditions: T/C endpoint: median survival time, higher T/C = longer survival
How it was run: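 Survival ratio, drug arm over vehicle arm, in mice with a transplanted tumour.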

[1] = dose: 50.0 mg/kg/injection, schedule: Q01DX009 (ip), vehicle: saline with Tween-80
[2] = dose: 100.0 mg/kg/injection, schedule: Q01DX009 (ip), vehicle: saline with Tween-80
[3] = dose: 200.0 mg/kg/injection, schedule: Q01DX009 (ip), vehicle: saline with Tween-80

Compound: O=C(Nc1cc(Cl)c(NC(=O)c2ccccc2)c(Cl)c1)c1ccccc1
- survivor count (dose: 50.0 mg/kg/injection, schedule: Q01DX001 (ip), vehicle: saline with Tween-80): 6 of 6

Compound: CS(=O)(=O)OCC(=O)NCC(O)CNC(=O)COS(C)(=O)=O
- T/C (dose: 118.0 mg/kg/injection, schedule: Q04DX003 (ip), vehicle: saline with Tween-80): 146 % of control
- T/C (dose: 600.0 mg/kg/injection, schedule: Q04DX003 (ip), vehicle: saline with Tween-80): 136 % of control

Compound: BrCC[N+]12CC[N+](CCBr)(CC1)C2
- T/C [1]: 134 and 146 % of control [5 of 6 alive]
- survivor count [2]: 3 of 6
- T/C (dose: 100.0 mg/kg/injection, schedule: Q04DX003 (ip), vehicle: water): 131 % of control
- survivor count [3]: 1 of 6
- T/C (dose: 200.0 mg/kg/injection, schedule: Q04DX003 (ip), vehicle: water): 140 % of control

Compound: c1ccc([C@H]2CN3CCSC3=N2)cc1
- survivor count (dose: 40.0 mg/kg/injection, schedule: Q01DX009 (ip), vehicle: saline): 1 of 5 and 2 of 6

Compound: COC(=O)/C=C/c1c[nH]c2nccnc12
- T/C (dose: 200.0 mg/kg/injection, schedule: Q01DX009 (ip), vehicle: water): 128 % of control

Compound: C[C@H]1CC2=CC(=O)CC[C@]2(C)[C@H]2CC[C@@]3(C)[C@@H](CC[C@]3(C)O)[C@H]12
- survivor count (dose: 400.0 mg/kg/injection, schedule: Q01DX009 (ip), vehicle: Klucel (hydroxypropylcellulose) (HPC)): 5 of 6

Compound: COC1(c2ccc([N+](=O)[O-])o2)OC1(C)C (stereo not drawn)
- T/C [1]: 130 % of control
- T/C [2]: 138 % of control [5 of 6 alive]

Compound: C=Cn1ccnc1C(O)(c1ccc(Cl)cc1)c1ccc(Cl)cc1
- T/C [1]: 125 % of control
- T/C [3]: 132 % of control

Compound: O=Ic1ccccc1
- survivor count (dose: 50.0 mg/kg/injection, schedule: Q01DX009 (ip), vehicle: Klucel (hydroxypropylcellulose) (HPC)): 5 of 6
- survivor count (dose: 100.0 mg/kg/injection, schedule: Q01DX009 (ip), vehicle: Klucel (hydroxypropylcellulose) (HPC)): 2 of 6
- survivor count (dose: 200.0 mg/kg/injection, schedule: Q04DX003 (ip), vehicle: Klucel (hydroxypropylcellulose) (HPC)): 0 of 6

Compound: c1ccc2c[n+](CCCCCCCCCC[n+]3ccc4ccccc4c3)ccc2c1
- T/C (dose: 4.0 mg/kg/injection, schedule: Q01DX009 (ip), vehicle: saline): 127 % of control
- T/C (dose: 6.0 mg/kg/injection, schedule: Q01DX009 (ip), vehicle: saline): 130 % of control
- survivor count (dose: 20.0 mg/kg/injection, schedule: Q01DX009 (ip), vehicle: saline): 4 of 6 and 6 of 6

Compound: Cc1ccc(NC(=O)Oc2c(C)cc(Cl)cc2C)c([N+](=O)[O-])c1
- survivor count [2]: 6 of 6

Compound: O=[N+]([O-])c1cccc(C[n+]2ccccc2C2OCCO2)c1
- survivor count (dose: 50.0 mg/kg/injection, schedule: Q01DX009 (ip), vehicle: saline): 2 of 6
- survivor count (dose: 80.0 mg/kg/injection, schedule: Q01DX009 (ip), vehicle: saline): 0 of 6
- survivor count (dose: 105.0 mg/kg/injection, schedule: Q04DX003 (ip), vehicle: saline): 0 of 6
- survivor count (dose: 120.0 mg/kg/injection, schedule: Q01DX009 (ip), vehicle: saline): 0 of 6

Compound: Cc1ccc2ccccc2c1Cc1c(C=O)[nH]c(=S)[nH]c1=O
- T/C (dose: 400.0 mg/kg/injection, schedule: Q04DX003 (ip), vehicle: saline with Tween-80): 127 % of control

Compound: NC(Cc1ccccc1Cl)c1nn[nH]n1 (stereo not drawn)
- survivor count (dose: 100.0 mg/kg/injection, schedule: Q04DX002 (ip), vehicle: saline with Tween-80): 1 of 6

Compound: CC(=O)Nc1ccc2c3c(ccc([N+](=O)[O-])c13)CC2
- survivor count (dose: 400.0 mg/kg/injection, schedule: Q01DX009 (ip), vehicle: saline): 2 of 6

Compound: N=C(N)c1ccc(Oc2ccc(Oc3ccc(C(=N)N)cc3)cc2)cc1
- survivor count [1]: 0 of 6
- survivor count [2]: 0 of 6
- survivor count [3]: 0 of 6

Compound: NC(=S)S/C=C/C(=O)O
- survivor count (dose: 400.0 mg/kg/injection, schedule: Q01DX009 (ip), vehicle: saline with Tween-80): 0 of 6
